From PubChem BioAssay AID256 (DTP/NCI, 2004) come the findings set out here.

This experiment has as its system CD2F1 mice, L1210 leukemia ip, survival T/C. Put plainly: NCI In Vivo Anticancer Drug Screen. Data for tumor model L1210 Leukemia (intraperitoneal) in CD2F1 (CDF1) mice. The following applies: higher T/C = longer survival. The method in brief:
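Mice carrying a transplanted tumor received test compound or vehicle alone. The value is the measurement in the treated group divided by that in the vehicle-treated control group.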

Where [1] appears, read: T/C endpoint: mean survival time, dose: 200.0 mg/kg/injection, schedule: Q01DX001 (ip), vehicle: saline.
Setting [2] is: T/C endpoint: mean survival time, dose: 400.0 mg/kg/injection, schedule: Q01DX001 (ip), vehicle: saline.
Where [3] appears, read: T/C endpoint: mean survival time, dose: 400.0 mg/kg/injection, schedule: Q04DX003 (ip), vehicle: saline with Tween-80.
Setting [4] is: T/C endpoint: mean survival time, dose: 200.0 mg/kg/injection, schedule: Q04DX003 (ip), vehicle: saline with Tween-80.
Where [5] appears, read: T/C endpoint: mean survival time, dose: 150.0 mg/kg/injection, schedule: Q01DX001 (ip), vehicle: other.
The mark [6] stands for this setting: T/C endpoint: mean survival time, dose: 200.0 mg/kg/injection, schedule: Q01DX009 (ip), vehicle: saline with Tween-80.
[7] abbreviates: T/C endpoint: mean survival time, dose: 400.0 mg/kg/injection, schedule: Q01DX009 (ip), vehicle: saline with Tween-80.
The mark [8] stands for this setting: T/C endpoint: mean survival time, dose: 100.0 mg/kg/injection, schedule: Q04DX003 (ip), vehicle: saline with Tween-80.

The list shows only some results of the screen, not a fair sample: it is rich in T/C values a quarter to a half above the control, in often repeated tests (any T/C) and in doses without a T/C. Other doses and runs of a compound stand elsewhere. T/C is the treated group as % of the vehicle group. Some doses have a count of surviving animals in place of a T/C: the source files T/C as zero there, which appears to mark a toxic dose or a test without result, not a measured value. Some survivor counts are full or nearly so, which does not show that the dose was tolerated: survival well below the control is almost never listed, so the zero probably covers shortened survival too. Survivors were counted at the toxicity check, usually on the fifth day, unless a day is given; later deaths do not show. Schedules are NCI's codes, read here as Q, the interval in days (D) or hours (H), X, the number of doses. Some structures stand for samples that the source files as different forms (salt, stereo form or complex); doses refer to the form tested. Some entries hold several experiments; their values stand side by side, smallest first. For survival time, this PubChem deposit counts one and a half times the control or more as active, and values a quarter to a half above the control carry no call in these data; other NCI protocols may use other cut-offs. Some T/C values carry the count of animals alive at the toxicity check (mostly the fifth day); where none is given, no animal had died by that day.

With `C=CC1CN2CCC1CC2C(O)c1ccnc2ccc(OC)cc12` (centres undefined) (tested in a mixture with another compound), the survivor count is, setting by setting: under setting [1], 6 of 6; under setting [2], 3 of 6; under setting [3], 1 of 6 and 3 of 6.

As for `Cc1ccc(-n2c(=S)[nH]c3ccccc3c2=O)cc1`, the survivor count reads like this: under setting [4], 3 of 6; under setting [3], 1 of 6.

For `CCOC(=O)N1CCN(c2ccc(Cl)cc2)CC1`, the survivor count (T/C endpoint: mean survival time, dose: 400.0 mg/kg/injection, schedule: Q04DX003 (ip), vehicle: Klucel (hydroxypropylcellulose) (HPC)) is 3 of 6.

On to `O=C1CSC(=S)N1/N=C/c1cc2c(cc1[N+](=O)[O-])OCO2`, for which, under setting [5], the survivor count is reported as 2 of 6.

In the case of `COC1=C(C)C(=O)C2=C(C1=O)C(COC(N)=O)C(=O)C1NC1CN2C` (centres undefined), the survivor count (T/C endpoint: mean survival time, dose: 9.4 mg/kg/injection, schedule: Q01DX001 (ip), vehicle: carboxymethylcellulose (CMC)) is on record as 2 of 4.

For `CN(C)N=Nc1ccc[n+]([O-])c1`, the T/C is 146 % of control (T/C endpoint: mean survival time, dose: 178.0 mg/kg/injection, schedule: Q01DX001 (ip), vehicle: saline) and 132 % of control (T/C endpoint: mean survival time, dose: 267.0 mg/kg/injection, schedule: Q01DX001 (ip), vehicle: saline). Further, the survivor count is, setting by setting: under setting [2], 3 of 6; (T/C endpoint: mean survival time, dose: 600.0 mg/kg/injection, schedule: Q01DX001 (ip), vehicle: saline) 1 of 6.

As for `CC1CC(C)(C)NC(CC2CCCCC2O)O1` (centres undefined), the survivor count is 3 of 6 under setting [4] and 0 of 6 under setting [3].

With `O=C(Nc1ccc(Oc2ccc(Cl)c(Cl)c2)c(Cl)c1)Nc1cc(Cl)c(Cl)cc1S(=O)(=O)O`, the survivor count under setting [6] is 4 of 6 and the survivor count under setting [7] is given as 0 of 6.

For `[Cl][Pt+2][Cl].[NH-]CC1(C[NH-])CCCC1`, the survivor count (T/C endpoint: mean survival time, dose: 50.0 mg/kg/injection, schedule: Q04DX003 (ip), vehicle: saline with Tween-80) is reported as 4 of 6; the survivor count under setting [8] is 3 of 6; the survivor count under setting [4] was 0 of 6.

For `O=P(Nc1ccccc1)(OCc1ccccc1)N(CCCl)CCCl` (centres undefined), the survivor count (T/C endpoint: mean survival time, dose: 500.0 mg/kg/injection, schedule: Q01DX010 (ip), vehicle: saline) was 0 of 6.

Turning to `N=c1c2ccn(C3OC(CO)C(O)C3O)c2ncn1N` (centres undefined), the survivor count (T/C endpoint: mean survival time, dose: 200.0 mg/kg/injection, schedule: Q01DX005 (ip), vehicle: water) is 2 of 6.

Regarding `O=CN(O)CC(=O)O.[Zn]`, the survivor count by setting is: (T/C endpoint: mean survival time, dose: 50.0 mg/kg/injection, schedule: Q04DX003 (ip), vehicle: saline) 1 of 6; (T/C endpoint: mean survival time, dose: 100.0 mg/kg/injection, schedule: Q04DX003 (ip), vehicle: saline) 0 of 6; (T/C endpoint: mean survival time, dose: 200.0 mg/kg/injection, schedule: Q04DX003 (ip), vehicle: saline) 0 of 6; (T/C endpoint: mean survival time, dose: 400.0 mg/kg/injection, schedule: Q04DX003 (ip), vehicle: saline) 0 of 6.

For `Cc1cccc(C(=O)NN)c1`, the survivor count (T/C endpoint: mean survival time, dose: 150.0 mg/kg/injection, schedule: Q01DX001 (ip), vehicle: saline) is 3 of 6 and the survivor count (T/C endpoint: mean survival time, dose: 300.0 mg/kg/injection, schedule: Q01DX001 (ip), vehicle: saline) is listed as 0 of 6.

Regarding `CC(C)(CO)COC(=O)NC1=C(N2CC2)C(=O)C(NC(=O)OCC(C)(C)CO)=C(N2CC2)C1=O`, the T/C is 125 and 136 % of control (T/C endpoint: mean survival time, dose: 3.0 mg/kg/injection, schedule: Q01DX009 (ip), vehicle: water); 136 and 140 % of control (T/C endpoint: mean survival time, dose: 6.0 mg/kg/injection, schedule: Q01DX009 (ip), vehicle: water).

With `CC1(O)C=CC(=O)C=C1`, the survivor count (T/C endpoint: median survival time, dose: 100.0 mg/kg/injection, schedule: Q01DX009 (ip), vehicle: water) is on record as 0 of 6.

For the molecule `CC1(C)Cc2ccccc2O1`, under setting [7], the survivor count is recorded as 0 of 6.

Take `CN(C)CCNC(=O)C(c1ccccc1)c1ccccc1`: the survivor count was 3 of 6 under setting [4] and 0 of 6 under setting [3].

As to `FC(F)(F)/C([S-])=C(/[S-])C(F)(F)F.N#[O+].[Mn].[c-]1[c-][c-][cH-][c-]1`, the survivor count is 1 of 6 under setting [5] and 0 of 6 (T/C endpoint: mean survival time, dose: 300.0 mg/kg/injection, schedule: Q01DX001 (ip), vehicle: other).

For the molecule `CN1CCN(Cc2nc3cccc4c3c([n+]2[O-])-c2ccccc2-4)CC1`, the T/C under setting [6] is 131 [5 of 6 alive], 133 [5 of 6 alive], 146 % of control [9 of 10 alive]. Besides, the survivor count under setting [7] was 0 of 6, 3 of 10, 2 of 6.

Turning to `NC(=O)c1[nH]cnc1NN=NCCF`, the survivor count runs as follows: (T/C endpoint: mean survival time, dose: 50.0 mg/kg/injection, schedule: Q01DX001 (ip), vehicle: Klucel (hydroxypropylcellulose) (HPC)) 0 of 6; (T/C endpoint: mean survival time, dose: 100.0 mg/kg/injection, schedule: Q01DX001 (ip), vehicle: Klucel (hydroxypropylcellulose) (HPC)) 0 of 6; (T/C endpoint: mean survival time, dose: 200.0 mg/kg/injection, schedule: Q01DX001 (ip), vehicle: Klucel (hydroxypropylcellulose) (HPC)) 0 of 6.

As to `CC1(C)N=C(N)N=C(N)N1c1cccc([N+](=O)[O-])c1`, the survivor count runs as follows: (T/C endpoint: mean survival time, dose: 200.0 mg/kg/injection, schedule: Q04DX002 (ip), vehicle: saline with Tween-80) 0 of 3; (T/C endpoint: mean survival time, dose: 400.0 mg/kg/injection, schedule: Q04DX002 (ip), vehicle: saline with Tween-80) 0 of 3.

Consider `CC1CCCN(CCSSCCN2CCCC(C)C2)C1` (centres undefined), for which the survivor count is given as 5 of 6 under setting [8], 0 of 6 under setting [4] and 0 of 6 under setting [3].

In the case of `CN(C)C(=S)N1C(=O)C2C3CCC(O3)C2C1=O` (centres undefined), the survivor count is, setting by setting: (T/C endpoint: mean survival time, dose: 25.0 mg/kg/injection, schedule: Q04DX002 (ip), vehicle: saline with Tween-80) 0 of 3; (T/C endpoint: mean survival time, dose: 50.0 mg/kg/injection, schedule: Q04DX002 (ip), vehicle: saline with Tween-80) 0 of 3; (T/C endpoint: mean survival time, dose: 100.0 mg/kg/injection, schedule: Q04DX002 (ip), vehicle: saline with Tween-80) 0 of 3.

For `CS(=O)(=O)Nc1ccc(Nc2c3ccccc3nc3cc(N)ccc23)cc1`, the T/C (T/C endpoint: mean survival time, dose: 1.3 mg/kg/injection, schedule: Q01DX009 (ip), vehicle: saline) was 144 % of control; the T/C (T/C endpoint: mean survival time, dose: 2.0 mg/kg/injection, schedule: Q01DX009 (ip), vehicle: saline) was 131 % of control; the T/C (T/C endpoint: mean survival time, dose: 6.0 mg/kg/injection, schedule: Q01DX001 (ip), vehicle: saline) was 139 % of control [5 of 6 alive].

As to `CN(C)N=Nc1c(F)c(F)c(F)c(F)c1F`, the survivor count is on record as 2 of 6 under setting [6] and 1 of 6 under setting [7].

As for `CC[n+]1ccccc1CCC(=O)Nc1ccccc1`, the survivor count is, setting by setting: under setting [8], 0 of 6; under setting [4], 0 of 6; under setting [3], 0 of 6.

For `C=C(Cl)CNC(N)=S`, the survivor count under setting [3] is 1 of 6.

In the case of `Clc1ccc(C#Cc2ccc(Cl)cc2)cc1`, under setting [4], the survivor count is listed as 2 of 6.

Regarding `COC(=O)c1cc(-c2ccccc2)nc2c1ccc1ccccc12`, the survivor count by setting is: under setting [1], 6 of 6; under setting [2], 6 of 6.

Turning to `COc1cc(-c2ccc(N)c(OC)c2)ccc1N`, the survivor count (T/C endpoint: mean survival time, dose: 400.0 mg/kg/injection, schedule: Q01DX009 (ip), vehicle: saline) was 0 of 3 and 0 of 6.

For `C[n+]1cccc(C(=S)[S-])c1`, the survivor count is on record as 6 of 6 (T/C endpoint: mean survival time, dose: 100.0 mg/kg/injection, schedule: Q01DX009 (ip), vehicle: saline with Tween-80); 2 of 6 under setting [4]; 2 of 6 under setting [3].
